In the supplement of paper PMC4604168 (melanoma cell lines):
This is one part of the list. Single values are uncertain, as repeats are few or missing.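 Imaging used 1,536-well plates; nuclei positive for cleaved PARP by antibody were divided by total DNA-stained nuclei to yield the apoptosis fraction. Doses for screening kept most cells viable, and cell lines differ markedly in resting and induced cleaved-PARP levels.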

System: CBRC016 (line from a melanoma biopsy)
Assay: cleaved PARP positive nuclei fraction relative to DMSO control; melanoma cells; higher = more apoptosis
Conditions: library dose: low library concentration; 72 h

| Compound | cleaved PARP positive nuclei fraction [%] |
| --- | --- |
| Nc1nc(F)nc2c1ncn2[C@@H]1O[C@H](CO)[C@@H](O)[C@@H]1O [fludarabine] + COc1ccc2c(c1)CCC1C2CCC2(C)C(NCCCCCCN3C(=O)C=CC3=O)CCC12 [U73122] (first compound 0.2 µM, partner dose 0.4 µM) | 32.9 |
| O=C(O)[C@@H]1[O][Sb](=[O])([O][Sb]2(=[O])[O][C@H]([C@H](O)CO)[C@H](O)[C@H](C(=O)O)[O]2)[O][C@H]([C@H](O)CO)[C@@H]1O (stereo not given in full) [stibogluconate] + O=C(O)C(=O)Nc1sc2c(c1C(=O)O)CCNC2 [TCS401] (first compound 2 µM, partner dose 1.66667 µM) | 29.9 |
| C=C(c1ccc(C(=O)O)cc1)c1cc2c(cc1C)C(C)(C)CCC2(C)C [Bexarotene] + Cc1cc([N+](=O)[O-])ccc1NS(=O)(=O)c1cc(Cl)ccc1Cl [FH535] (first compound 2 µM, partner dose 1 µM) | 427 |
| C=C(c1ccc(C(=O)O)cc1)c1cc2c(cc1C)C(C)(C)CCC2(C)C [Bexarotene] + COc1ccc(COc2ccc(Cc3cnc(N)nc3N)cc2OC)cc1 [GW2580] (first compound 2 µM, partner dose 1 µM) | 61.1 |
| Nc1nc(F)nc2c1ncn2[C@@H]1O[C@H](CO)[C@@H](O)[C@@H]1O [fludarabine] + O=C(Nc1ccccc1)c1cc([N+](=O)[O-])ccc1Cl [GW9662] (first compound 0.2 µM, partner dose 2 µM) | 66.4 |
